Measured values: PMC4691890
These are yes or no findings as the source states them, for the method shown.

By UniProt entry, the sequences of proteins in these tests, tags left out. Where a name states a change or a piece, a line headed by the entry shows the natural chain unless it says otherwise. Chains listed by the source or under a name are the forms on record and can include a tag or linker.
UniProt O14727: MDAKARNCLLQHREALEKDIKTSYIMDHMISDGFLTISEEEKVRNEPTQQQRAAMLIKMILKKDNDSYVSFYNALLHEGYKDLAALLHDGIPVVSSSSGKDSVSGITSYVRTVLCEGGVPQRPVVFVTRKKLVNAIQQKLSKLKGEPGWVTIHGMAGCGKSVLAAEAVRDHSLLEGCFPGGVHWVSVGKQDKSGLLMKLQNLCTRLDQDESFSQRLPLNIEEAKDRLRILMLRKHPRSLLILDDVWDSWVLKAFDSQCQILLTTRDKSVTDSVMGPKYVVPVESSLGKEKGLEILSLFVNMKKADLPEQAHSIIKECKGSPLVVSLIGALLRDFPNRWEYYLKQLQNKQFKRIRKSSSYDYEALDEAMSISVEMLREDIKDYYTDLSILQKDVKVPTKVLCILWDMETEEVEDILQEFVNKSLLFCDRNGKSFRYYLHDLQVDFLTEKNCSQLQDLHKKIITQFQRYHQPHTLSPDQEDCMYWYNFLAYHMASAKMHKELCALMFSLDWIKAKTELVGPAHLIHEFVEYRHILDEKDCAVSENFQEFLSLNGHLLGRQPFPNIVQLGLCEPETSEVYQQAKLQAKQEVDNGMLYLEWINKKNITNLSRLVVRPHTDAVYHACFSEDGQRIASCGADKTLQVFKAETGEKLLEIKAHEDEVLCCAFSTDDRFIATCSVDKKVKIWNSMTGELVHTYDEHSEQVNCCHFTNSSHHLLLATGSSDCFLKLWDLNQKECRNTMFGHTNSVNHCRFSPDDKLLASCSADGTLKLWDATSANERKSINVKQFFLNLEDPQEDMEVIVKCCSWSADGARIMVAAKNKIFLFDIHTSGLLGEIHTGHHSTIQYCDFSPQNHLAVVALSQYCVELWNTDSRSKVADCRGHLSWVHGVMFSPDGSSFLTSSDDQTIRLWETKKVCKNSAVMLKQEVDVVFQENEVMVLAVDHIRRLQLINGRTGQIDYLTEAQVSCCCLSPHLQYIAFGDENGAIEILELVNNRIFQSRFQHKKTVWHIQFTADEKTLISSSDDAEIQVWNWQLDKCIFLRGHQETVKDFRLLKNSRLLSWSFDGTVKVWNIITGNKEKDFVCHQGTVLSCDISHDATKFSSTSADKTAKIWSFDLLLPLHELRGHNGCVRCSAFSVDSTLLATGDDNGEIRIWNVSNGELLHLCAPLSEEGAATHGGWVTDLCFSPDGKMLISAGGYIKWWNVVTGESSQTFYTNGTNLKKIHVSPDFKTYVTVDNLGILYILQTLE
UniProt P00004: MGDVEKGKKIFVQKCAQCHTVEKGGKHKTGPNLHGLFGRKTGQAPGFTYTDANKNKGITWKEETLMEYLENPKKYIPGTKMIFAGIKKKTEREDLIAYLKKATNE
horse CytC G56K (P00004, form named): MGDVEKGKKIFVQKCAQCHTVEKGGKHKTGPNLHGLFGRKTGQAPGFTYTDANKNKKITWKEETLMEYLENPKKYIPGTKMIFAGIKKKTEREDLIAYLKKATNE
horse CytC I81E (P00004, form named): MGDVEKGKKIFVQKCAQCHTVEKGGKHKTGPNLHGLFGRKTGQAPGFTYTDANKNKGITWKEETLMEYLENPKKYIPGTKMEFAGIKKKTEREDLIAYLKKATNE
horse CytC P76E (P00004, form named): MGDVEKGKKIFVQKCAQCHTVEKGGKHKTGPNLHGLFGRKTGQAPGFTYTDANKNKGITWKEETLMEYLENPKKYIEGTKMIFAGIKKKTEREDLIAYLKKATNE

What was measured:
[1] = molecular target: full-length human Apaf-1 (residues 1–1248) (human) (UniProt O14727); test: ITC; Apaf-1 4 μM, CytC 60 μM; 100 mM KCl, 20 mM HEPES pH 7.5; 22°C; VP-ITC; both purified
[2] = molecular target: full-length human Apaf-1 (residues 1–1248) (human) (UniProt O14727); test: SEC; gel filtration of apoptosome formation: Apaf-1 with CytC in the presence of 1 mM dATP; both purified
[3] = molecular target: full-length human Apaf-1 (residues 1–1248) (human) (UniProt O14727); test: SEC; Apaf-1 incubated with CytC at a molar ratio of 1:2, Superdex-200 increase 5/150; 100 mM KCl, 20 mM HEPES pH 7.5, 5 mM DTT; fractions on SDS-PAGE; no dATP named; both purified

| Substance | binding [1] | binding [2] | binding [3] |
| --- | --- | --- | --- |
| horse CytC G56K (from UniProt P00004 1-105) | no binding (tested: Apaf-1 4 μM, CytC 60 μM) | no binding | no binding (tested: molar ratio of 1:2) |
| horse CytC I81E (from UniProt P00004 1-105) | no binding (tested: Apaf-1 4 μM, CytC 60 μM) | no binding | no binding (tested: molar ratio of 1:2) |
| horse CytC P76E (from UniProt P00004 1-105) | no binding (tested: Apaf-1 4 μM, CytC 60 μM) | no binding | no binding (tested: molar ratio of 1:2) |
